# Assay results: article PMC8298264, “Function of cofactor Akirin2 in the regulation of gene expression in model human neutrophil-like HL60 cells” (Bioscience Reports, 2021)
# Test system: human HL60 cells
# Assay: SWATH-MS proteomics, differential protein representation, akirin2 KO vs WT HL60 cells
# Format: cell-based
# Experimental: Total proteins were extracted from WT and akirin2 KO HL60 cells using the AllPrep DNA/RNA/Protein Mini Kit (Qiagen) and protein concentration was determined using the BCA Protein Assay with BSA (Sigma–Aldrich) as standard. Protein extracts (150 µg per sample, n=3 biological replicates) from each WT and KO cells were trypsin digested using the FASP Protein Digestion Kit (Expedeon Ltd., Abcam, Cambridge, U.K.) and sequencing grade trypsin (Promega, Madison, WI, U.S.A.) following manufacturer’s recommendations. The resulting peptides were finally desalted on to OMIX Pipette tips C18 (Agilent Technologies, Santa Clara, CA, U.S.A.), dried down and stored at −20 °C until mass spectrometry analysis. […] Three micrograms of each protein digest from the three biological replicates of WT and akirin2 KO HL60 cells were used for the generation of the reference spectral ion library as part of the SWATH-MS analysis.
# Peptides were eluted in a 120-min gradient from 5 to 30% solvent B in solvent A followed by 15-min gradient from 30 to 60% solvent B in solvent A (solvent A: 0.1% formic acid in water, solvent B: 0.1% formic acid in acetonitrile) and directly injected into the mass spectrometer for analysis. For IDA experiments, the mass spectrometer was set to scanning full spectra (350–1400 m/z) using 250 ms accumulation time per spectrum, followed by up to 50 MS/MS scans (100–1500 m/z). Candidate ions with a charge state between +2 and +5 counts per second above a minimum threshold of 100 were isolated for fragmentation. One MS/MS spectrum was collected for 100 ms, before adding those precursor ions to the exclusion list for 15 s (mass spectrometer operated by Analyst TF 1.6, AB Sciex). Dynamic background subtraction was turned off. MS/MS analyses were recorded in high-sensitivity mode with rolling collision energy on and a collision energy spread of 5. For SWATH quantitative analysis, six independent samples (three replicates from WT and akirin2 KO HL60 cells, 5 µg each) were subjected to the cyclic DIA of mass spectra using the SWATH variable windows calculator (V 1.0, AB Sciex) and the SWATH acquisition method editor (AB Sciex), similar to established methods. […] For these experiments, a 50-ms survey scan (350–1400 m/z) was acquired at the beginning of each cycle, and SWATH–MS/MS spectra were collected from 100–1500 m/z for 70 ms at high-sensitivity mode, resulting in a cycle time of 3.6 s. Collision energy for each window was determined according to the calculation for a charge +2 ion-centered upon the window with a collision energy spread of 15. To create a spectral library of all the detectable peptides in the samples, the IDA MS raw files were combined and subjected to database search in unison using ProteinPilot software v. 5.0.1 (AB Sciex) with the Paragon algorithm. […] The detected protein threshold was set at 0.05. An independent false discovery rate (FDR) analysis, using the target–decoy approach provided by Protein Pilot (AB Sciex; https://sciex.com/products/software/proteinpilot-software), was used to assess the quality of identifications. Positive identifications were considered when identified proteins reached 1% of global FDR. […] Global normalization was performed according to the Total Area Sums (TAS) of all detected proteins in the samples. […] Heatmaps were prepared using the Heatmapper (http://www.heatmapper.ca/expression/) with average linkage and Euclidean distance measurement method.
# [1] = sheet "Over-represented in KO", KO vs WT
# [2] = akirin2 KO vs WT HL60 cells, SWATH-MS, sheet "Under-represented in KO"
Molecule,Fold Change [1],Log (Fold Change) [1],Fold Change [2],Log (Fold Change) [2]
"sp¦O75940¦SPF30_HUMAN (protein, UniProt O75940 1-238, looked up) Survival of motor …: MSEDLAKQLASYKAQLQQVEAALSGNGENEDLLKLKKDLQEVIELTKDLLSTQPSETLASSDSFASTQPTHSWKVGDKCMAVWSEDGQCYEAEIEEIDEENGTAAITFAGYGNAEVTPLLNLKPVEEGRKAKEDSGNKPMSKKEMIAQQREYKKKKALKKAQRIKELEQEREDQKVKWQQFNNRAYSKNKKGQVKRSIFASPESVTGKVGVGTCGIADKPMTQYQDTSKYNVRHLMPQ",1.083,0.03446,,
"sp¦Q99714¦HCD2_HUMAN (protein, UniProt Q99714 2-261, looked up) 3-hydroxyacyl-CoA …: AAACRSVKGLVAVITGGASGLGLATAERLVGQGASAVLLDLPNSGGEAQAKKLGNNCVFAPADVTSEKDVQTALALAKGKFGRVDVAVNCAGIAVASKTYNLKKGQTHTLEDFQRVLDVNLMGTFNVIRLVAGEMGQNEPDQGGQRGVIINTASVAAFEGQVGQAAYSASKGGIVGMTLPIARDLAPIGIRVMTIAPGLFGTPLLTSLPEKVCNFLASQVPFPSRLGDPAEYAHLVQAIIENPFLNGEVIRLDGAIRMQP",,,0.7961,-0.09905
"sp¦Q16891¦MIC60_HUMAN (protein, UniProt Q16891 34-758, looked up) MICOS complex subunit MIC60: STSGSSGLTTGKIAGAGLLFVGGGIGGTILYAKWDSHFRESVEKTIPYSDKLFEMVLGPAAYNVPLPKKSIQSGPLKISSVSEVMKESKQPASQLQKQKGDTPASATAPTEAAQIISAAGDTLSVPAPAVQPEESLKTDHPEIGEGKPTPALSEEASSSSIRERPPEEVAARLAQQEKQEQVKIESLAKSLEDALRQTASVTLQAIAAQNAAVQAVNAHSNILKAAMDNSEIAGEKKSAQWRTVEGALKERRKAVDEAADALLKAKEELEKMKSVIENAKKKEVAGAKPHITAAEGKLHNMIVDLDNVVKKVQAAQSEAKVVSQYHELVVQARDDFKRELDSITPEVLPGWKGMSVSDLADKLSTDDLNSLIAHAHRRIDQLNRELAEQKATEKQHITLALEKQKLEEKRAFDSAVAKALEHHRSEIQAEQDRKIEEVRDAMENEMRTQLRRQAAAHTDHLRDVLRVQEQELKSEFEQNLSEKLSEQELQFRRLSQEQVDNFTLDINTAYARLRGIEQAVQSHAVAEEEARKAHQLWLSVEALKYSMKTSSAETPTIPLGSAVEAIKANCSDNEFTQALTAAIPPESLTRGVYSEETLRARFYAVQKLARRVAMIDETRNSLYQYFLSYLQSLLLFPPQQLKPPPELCPEDINTFKLLSYASYCIEHGDLELAAKFVNQLKGESRRVAQDWLKEARMTLETKQIVEILTAYASAVGIGTTQVQPE",,,0.797,-0.09852
